These are yes or no findings as the source states them, for the method shown. In cells and extracts the contact can be indirect. A result given as binding can be weak or reduced; the word gives no strength.

The target in the test is T1, long chain acyl-CoA dehydrogenase (mouse (endogenous in CGR8-NS neural stem cells)) (UniProt P51174).
T1 sequence: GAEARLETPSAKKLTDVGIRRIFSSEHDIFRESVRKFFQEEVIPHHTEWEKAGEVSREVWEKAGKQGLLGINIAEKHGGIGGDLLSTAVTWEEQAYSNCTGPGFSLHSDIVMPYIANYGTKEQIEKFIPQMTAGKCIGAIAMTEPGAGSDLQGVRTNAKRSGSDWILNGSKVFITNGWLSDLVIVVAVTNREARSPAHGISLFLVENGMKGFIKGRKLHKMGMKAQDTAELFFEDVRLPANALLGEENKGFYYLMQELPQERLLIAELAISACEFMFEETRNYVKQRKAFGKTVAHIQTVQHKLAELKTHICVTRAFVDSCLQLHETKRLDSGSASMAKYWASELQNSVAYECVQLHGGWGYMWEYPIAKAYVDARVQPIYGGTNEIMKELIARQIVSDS
The test is described as follows: co-IP; 500 ug whole cell extract of mouse NSCs (lysis buffer 50 mM Tris-HCl pH 7.4, 180 mM NaCl, 1 mM EDTA, 0.5% Triton X-100) incubated overnight at 4 °C with 1 ug rabbit polyclonal antibody to LCAD and Protein G affinity gel; blot probed for LCAD, then SIRT3; IgG immunoprecipitation as control; cells untreated or treated with 50 uM tBHP (2 h/day, 4 days), with control or SIRT3 overexpression plasmid.

For the substance Sirtuin 3 (enzyme), the binding result was “binds”.

The record behind these values is PMC8750385.
